No constants are given. Whether binding was seen depends on the method and setting. In cells and extracts the contact can be indirect. For some of these results: Binding calls can cover weak binding; strength is not graded here.

Protein sequences, listed by entry. Tags and fused reporters are not part of them. Lines headed by an entry give the natural chain unless they say otherwise; changes in a name come on top.
UniProt Q99J72: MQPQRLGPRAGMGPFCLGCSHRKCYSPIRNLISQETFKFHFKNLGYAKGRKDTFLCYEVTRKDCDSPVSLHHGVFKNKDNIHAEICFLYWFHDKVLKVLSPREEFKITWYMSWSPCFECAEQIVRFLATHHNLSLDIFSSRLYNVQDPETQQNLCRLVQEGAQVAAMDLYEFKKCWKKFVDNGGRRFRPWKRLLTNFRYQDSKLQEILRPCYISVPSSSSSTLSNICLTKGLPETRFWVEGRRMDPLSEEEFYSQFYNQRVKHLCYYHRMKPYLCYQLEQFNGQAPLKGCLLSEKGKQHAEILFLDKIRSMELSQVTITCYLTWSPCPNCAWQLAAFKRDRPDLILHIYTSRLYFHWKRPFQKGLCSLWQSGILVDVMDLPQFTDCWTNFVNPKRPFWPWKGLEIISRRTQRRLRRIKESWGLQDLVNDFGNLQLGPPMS
UniProt O43143: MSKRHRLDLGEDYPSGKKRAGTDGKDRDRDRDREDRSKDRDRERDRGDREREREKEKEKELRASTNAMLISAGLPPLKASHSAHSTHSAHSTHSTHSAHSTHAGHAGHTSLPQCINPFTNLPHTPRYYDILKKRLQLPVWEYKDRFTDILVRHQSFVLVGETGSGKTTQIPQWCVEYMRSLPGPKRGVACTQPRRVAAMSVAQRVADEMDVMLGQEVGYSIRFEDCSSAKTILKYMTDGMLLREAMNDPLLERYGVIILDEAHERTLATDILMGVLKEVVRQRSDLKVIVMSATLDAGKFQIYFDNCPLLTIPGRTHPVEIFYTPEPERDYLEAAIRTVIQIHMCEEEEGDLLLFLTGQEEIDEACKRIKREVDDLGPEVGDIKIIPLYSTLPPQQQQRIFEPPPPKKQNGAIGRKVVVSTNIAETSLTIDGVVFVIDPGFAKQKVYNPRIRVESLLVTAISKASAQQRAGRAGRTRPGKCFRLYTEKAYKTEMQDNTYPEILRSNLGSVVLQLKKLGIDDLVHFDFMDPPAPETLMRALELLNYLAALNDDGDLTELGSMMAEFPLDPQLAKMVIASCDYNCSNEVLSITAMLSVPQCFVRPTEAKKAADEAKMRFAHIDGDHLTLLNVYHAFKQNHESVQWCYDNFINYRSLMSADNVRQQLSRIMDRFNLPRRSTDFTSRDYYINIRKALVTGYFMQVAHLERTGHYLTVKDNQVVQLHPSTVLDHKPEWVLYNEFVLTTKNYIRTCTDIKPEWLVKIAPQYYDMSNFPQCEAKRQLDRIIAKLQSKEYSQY
UniProt O35286: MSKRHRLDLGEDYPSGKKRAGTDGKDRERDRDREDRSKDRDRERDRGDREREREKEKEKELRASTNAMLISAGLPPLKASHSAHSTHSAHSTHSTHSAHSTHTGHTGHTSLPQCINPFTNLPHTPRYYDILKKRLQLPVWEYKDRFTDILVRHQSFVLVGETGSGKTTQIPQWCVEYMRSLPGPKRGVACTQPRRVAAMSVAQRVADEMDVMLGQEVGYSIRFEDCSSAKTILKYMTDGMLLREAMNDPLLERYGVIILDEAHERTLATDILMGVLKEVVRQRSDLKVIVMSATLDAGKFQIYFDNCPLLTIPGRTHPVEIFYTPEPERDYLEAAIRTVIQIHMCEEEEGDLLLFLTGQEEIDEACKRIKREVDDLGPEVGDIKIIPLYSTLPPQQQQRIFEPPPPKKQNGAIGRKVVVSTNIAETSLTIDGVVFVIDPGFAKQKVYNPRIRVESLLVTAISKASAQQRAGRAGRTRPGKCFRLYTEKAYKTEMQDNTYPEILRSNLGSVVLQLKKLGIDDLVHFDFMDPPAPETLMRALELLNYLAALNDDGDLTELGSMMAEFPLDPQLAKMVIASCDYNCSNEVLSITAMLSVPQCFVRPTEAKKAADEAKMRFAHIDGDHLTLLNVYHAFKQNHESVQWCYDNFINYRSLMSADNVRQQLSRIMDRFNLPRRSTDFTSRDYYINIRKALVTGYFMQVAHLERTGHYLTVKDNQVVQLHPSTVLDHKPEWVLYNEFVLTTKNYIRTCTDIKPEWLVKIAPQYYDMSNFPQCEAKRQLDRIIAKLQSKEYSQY
UniProt P67809: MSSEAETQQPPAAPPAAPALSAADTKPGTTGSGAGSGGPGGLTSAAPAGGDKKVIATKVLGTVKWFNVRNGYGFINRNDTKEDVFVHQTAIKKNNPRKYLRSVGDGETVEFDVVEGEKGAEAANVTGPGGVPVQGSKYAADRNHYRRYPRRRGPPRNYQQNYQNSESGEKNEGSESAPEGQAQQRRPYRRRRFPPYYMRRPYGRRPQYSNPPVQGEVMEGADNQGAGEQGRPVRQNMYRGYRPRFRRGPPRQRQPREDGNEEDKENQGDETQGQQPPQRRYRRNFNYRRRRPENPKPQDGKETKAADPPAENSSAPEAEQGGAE

For assay [1], the target named is FLAG-tagged full-length mouse APOBEC3 (containing exon 5) (mouse) (UniProt Q99J72). Put plainly: co-IP; as a2, but lysates incubated with RNase A (50 µg/ml) at 37°C for 30 minutes prior to immunoprecipitation.
For assay [2] the target is unchanged. Kind of assay: co-IP; 293T cells over-expressing FLAG-tagged mAPOBEC3, hAPOBEC3G or RFP; endogenous partner detected by Western blot; no RNase A. On the technique in general: In western blotting, separated proteins are transferred to a membrane and probed.
The target of assay [3] is GFP-tagged mAPOBEC3 fragment of 80 amino acids of the N terminus (mouse) (UniProt Q99J72). Kind of assay: co-IP; GFP-tagged mAPOBEC3 CD1 truncations and DHX15; lysates without RNase A.
Assay [4] deals with FLAG-tagged full-length mouse APOBEC3 (containing exon 5) (mouse) (UniProt Q99J72). Kind of assay: co-IP; 293T cells transfected with FLAG-tagged RFP, mA3, mA3N or mA3C and the DHX15 vector; blots probed with anti-DHX15 and anti-FLAG.
The target of assay [5] is HA-tagged mouse APOBEC3 (mouse) (UniProt Q99J72). Put plainly: proximity ligation; NIH3T3 cells transiently transfected with HA-tagged mAPOBEC3, fixed with methanol; mouse anti-HA and rabbit anti-DHX15; NaveniFlex MR PLA kit.
Assay [6] addresses FLAG-tagged full-length mouse APOBEC3 (containing exon 5) (mouse) (UniProt Q99J72). Put plainly: condition: only lysates treated with RNase A (50 µg/ml, 37°C, 30 minutes) prior to immunoprecipitation; co-IP; as a2, but lysates incubated with RNase A (50 µg/ml) at 37°C for 30 minutes prior to immunoprecipitation.

Regarding “DEAH-box helicase 15 (DHX15), endogenous in 293T cells (from UniProt O43143 1-795)”, the binding entry in assay [1] and in assay [2] was “binds” each time.

“DHX15 in the co-IPs with mAPOBEC3 domains and CD1 truncations (the DHX15 vector) (from UniProt O43143 1-795)”: the binding entry in assay [3] and in assay [4] was “binds” in each case.

Regarding “DHX15, endogenous in mouse cells (from UniProt O35286 1-795)”, the binding entry in assay [5] is listed as “binds”.

On to “Y-box binding protein 1 (YB1), endogenous in 293T cells (from UniProt P67809 1-324)”, for which the binding entry is reported as “binds” in assay [2] and “no binding” in assay [6].

The values are drawn from article PMC11990775.
